The supplement of paper PMC6078165

System: BT20
Test: relative JC-1 red fluorescence (viability) vs pre-drug, coculture with fibroblast (fraction); higher = more viable cancer cells
Conditions: 1 µM
Procedure: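 JC-1 labelled TNBC cells cocultured 1:1 (1,500 cells each) with CellTrace Violet stained primary or stromal fibroblasts in 384-well plates in FluoroBrite medium, treated with one of 42 anticancer drugs at 0.1, 1, 10 or 100 uM. JC-1 red fluorescence (mitochondrial integrity in cancer cells only) was read by plate reader every 8 h for 72 h. Values are normalised to each well's pre-drug value. The stock of one drug was tenfold lower, so its dose labels may be too high.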

CC(C)C[C@H](NC(=O)[C@H](Cc1ccccc1)NC(=O)c1cnccn1)B(O)O [Bortezomib]
relative JC-1 red fluorescence
Conditions | 8 h | 16 h | 24 h | 32 h | 40 h | 48 h | 56 h | 64 h | 72 h
coculture fibroblast: C12385 | 0.895 | 0.816 | 0.65 | 0.526 | 0.427 | 0.398 | 0.368 | 0.354 | 0.347
coculture fibroblast: H6013 | 0.95 | 0.791 | 0.7308 | 0.627 | 0.571 | 0.571 | 0.598 | 0.591 | 0.591
coculture fibroblast: H6019 | 0.8485 | 0.741 | 0.613 | 0.539 | 0.492 | 0.496 | 0.503 | 0.513 | 0.519
coculture fibroblast: H6076 | 0.973 | 0.81 | 0.707 | 0.681 | 0.703 | 0.722 | 0.749 | 0.762 | 0.756
coculture fibroblast: H6231 | 0.848 | 0.954 | 0.743 | 0.58 | 0.528 | 0.486 | 0.461 | 0.434 | 0.424
coculture fibroblast: HADF | 0.825 | 0.851 | 0.858 | 0.773 | 0.724 | 0.682 | 0.656 | 0.621 | 0.595
coculture fibroblast: HCFa | 0.91 | 0.755 | 0.658 | 0.511 | 0.448 | 0.421 | 0.426 | 0.419 | 0.398
coculture fibroblast: HCPF | 0.926 | 0.9 | 0.755 | 0.6584 | 0.59 | 0.549 | 0.517 | 0.514 | 0.494
coculture fibroblast: HHSteC | 0.901 | 0.778 | 0.719 | 0.586 | 0.521 | 0.474 | 0.471 | 0.445 | 0.421
coculture fibroblast: HMF | 0.85 | 0.866 | 0.665 | 0.56 | 0.466 | 0.419 | 0.408 | 0.404 | 0.4
coculture fibroblast: HPFa | 0.9253 | 0.823 | 0.824 | 0.715 | 0.731 | 0.696 | 0.697 | 0.695 | 0.668
coculture fibroblast: HUF | 0.911 | 0.779 | 0.773 | 0.67 | 0.624 | 0.602 | 0.599 | 0.595 | 0.59
coculture fibroblast: Hs5 | 0.876 | 0.851 | 0.7011 | 0.606 | 0.528 | 0.499 | 0.486 | 0.46 | 0.444
coculture fibroblast: Hs27A | 0.824 | 0.803 | 0.944 | 0.859 | 0.806 | 0.7592 | 0.763 | 0.7446 | 0.7125
coculture fibroblast: Hs343T | 0.782 | 0.89 | 0.733 | 0.611 | 0.496 | 0.449 | 0.424 | 0.425 | 0.425
coculture fibroblast: WS1 | 0.915 | 0.8148 | 0.726 | 0.603 | 0.522 | 0.512 | 0.492 | 0.484 | 0.487

The reference is the same well before dosing, and untreated signal decays as well.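 Fibroblast labels name human fibroblasts: mostly primary ones from tissues such as uterus (C12385, HUF), lung (H6013), bone (Hs27A), adrenal (HADF) and skin (WS1), plus mammary HMF and breast cancer-associated Hs343T. The cancer cells are basal-like or mesenchymal-like triple-negative breast cancer lines. The paper calls a changed response a hit when it shifts by more than 3x the replicate standard deviation. The tissue of the other fibroblasts is not given here.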
